Source: patent publication US20170000132A1, “BENZOXABOROLE FUNGICIDES” (SYNGENTA PARTICIPATIONS AG, priority 2013, published 2017)
Some results were stated once for a whole list of compounds, not compound by compound. At least one structure is not confirmed: it was looked up by name or label, or the drawing left a doubt.

Tests used:
Format in all cases: cell-based
Pythium ultimum = Pythium ultimum / liquid culture (seedling damping off); conditions: 200 ppm, potato dextrose broth, 2-3 days after application
[1] = tested on: Monographella nivalis (Microdochium nivale); assay: Monographella nivalis / liquid culture (foot rot cereals); conditions: 200 ppm, PDB, 4-5 days after application
[2] = tested on: Glomerella lagenarium (Colletotrichum lagenarium); assay: Glomerella lagenarium / liquid culture (anthracnose); conditions: 200 ppm, PDB, 3-4 days after application
[3] = tested on: Mycosphaerella arachidis (Cercospora arachidicola); assay: Mycosphaerella arachidis / liquid culture (early leaf spot); conditions: 200 ppm, PDB, 4-5 days after application
Gaeumannomyces graminis = Gaeumannomyces graminis / liquid culture (take-all of cereals); conditions: 200 ppm, PDB, 4-5 days after application
[4] = tested on: Mycosphaerella graminicola (Septoria tritici); assay: Mycosphaerella graminicola / liquid culture (Septoria blotch); conditions: 200 ppm, PDB, 4-5 days after application

Measured: disease control (inhibition of growth, photometric)

OB1OCc2cccc(C=NOCc3ccccc3)c21 (single isomer, unassigned) [Compound 434]
at least 80%: Pythium ultimum | [1] | [2] | [3]

O=C(NN=Cc1cc(Cl)cc2c1B(O)OC2)c1cccnc1 (single isomer, unassigned) [Compound 160]
at least 80%: Pythium ultimum | [2] | [3]

CC(C#Cc1cccs1)=CCON=Cc1cc2c(cc1F)COB2O [Compound 153]
at least 80%: [1] | Gaeumannomyces graminis | [2] | [3]

CC(ON=Cc1cc2c(cc1Cl)COB2O)c1cc(Cl)cc(Cl)c1 (mixture of isomers) [Compound 67]
at least 80%: [1] | Gaeumannomyces graminis | [3] | [4]

OB1OCc2cc(F)c(C=NNc3c(Cl)cccc3Cl)cc21 (single isomer, unassigned) [Compound 115]
at least 80%: Pythium ultimum | [1] | [2] | [3]

CCON=Cc1cccc2c1B(O)OC2 (single isomer, unassigned) [Compound 359]
at least 80%: Pythium ultimum | [1] | [2] | [3]

CC(C)NN=Cc1cc(Cl)cc2c1B(O)OC2 (single isomer, unassigned) [Compound 178]
at least 80%: Pythium ultimum | [1] | [3]

OB1OCc2cc(F)c(C=NOCc3c(Cl)cccc3Cl)cc21 (single isomer, unassigned) [Compound 134]
at least 80%: [1] | Gaeumannomyces graminis | [2] | [3]

CCOC(=O)NN=Cc1cc(Cl)cc2c1B(O)OC2 (single isomer, unassigned) [Compound 167]
at least 80%: Pythium ultimum | [2] | [3]

CC(C)CON=Cc1cc2c(cc1F)COB2O (single isomer, unassigned) [Compound 136]
not listed: Pythium ultimum
at least 80%: all other assays above

CCOC(=O)C(C)ON=Cc1cc2c(cc1F)COB2O (single isomer, unassigned) [Compound 133]
not listed: [4]
at least 80%: all other assays above

COC(=O)Cc1ccccc1CON=Cc1cc2c(cc1Cl)COB2O (single isomer, unassigned) [Compound 59]
at least 80%: [2] | [3]

CC(C)NN=Cc1cc(F)cc2c1B(O)OC2 (single isomer, unassigned) [Compound 257]
at least 80%: Pythium ultimum | [1] | [2] | [3]

CCOC(=O)C(C)ON=Cc1cc2c(cc1Cl)COB2O (mixture of isomers) [Compound 52]
not listed: [4]
at least 80%: all other assays above

COC(=O)C(Cc1ccccc1)ON=Cc1cc2c(cc1Cl)COB2O (mixture of isomers) [Compound 54]
not listed: Pythium ultimum
at least 80%: all other assays above

ON=Cc1cc(F)cc2c1B(O)OC2 (single isomer, unassigned) [Compound 301]
at least 80%: Pythium ultimum | [2] | [3]

OB1OCc2cc(F)cc(C=NOCC=CCl)c21 [Compound 271]
not listed: [3]
at least 80%: all other assays above

CC(C)(C)ON=Cc1cc2c(cc1F)COB2O (single isomer, unassigned) [Compound 121]
not listed: [3]
at least 80%: all other assays above

CC(C)ON=Cc1ccc2c(c1)COB2O (single isomer, unassigned) [Compound 412]
not listed: [3]
at least 80%: all other assays above

CCCCON=Cc1cc(Cl)cc2c1B(O)OC2 (single isomer, unassigned) [Compound 196]
not listed: [3]
at least 80%: all other assays above

C=C(Cl)CON=Cc1cc(F)cc2c1B(O)OC2 (single isomer, unassigned) [Compound 277]
not listed: [3]
at least 80%: all other assays above

CCOC(=O)CNN=Cc1cc2c(cc1Cl)COB2O (single isomer, unassigned) [Compound 70]
at least 80%: Pythium ultimum | [1] | Gaeumannomyces graminis | [3]

CCCCCCON=Cc1cc2c(cc1Cl)COB2O (single isomer, unassigned) [Compound 46]
at least 80%: [1] | [2] | [3] | [4]

COC(=O)Cc1ccccc1CON=Cc1cccc2c1B(O)OC2 (single isomer, unassigned) [Compound 343]
not listed: [3]
at least 80%: all other assays above

O=[N+]([O-])c1ccc(CON=Cc2cc3c(cc2F)COB3O)cc1 (single isomer, unassigned) [Compound 125]
at least 80%: [1] | Gaeumannomyces graminis | [3]

O=C(NN=Cc1cc(Cl)cc2c1B(O)OC2)C1CC1 (single isomer, unassigned) [Compound 174]
at least 80%: Pythium ultimum | [2] | [3]

N#Cc1ccc(ON=Cc2cc3c(cc2F)COB3O)cc1 (single isomer, unassigned) [Compound 147]
at least 80%: [2] | [3]

Cc1ccc(CON=Cc2cccc3c2B(O)OC3)cc1 (single isomer, unassigned) [Compound 348]
not listed: [3]
at least 80%: all other assays above

CCNC(=S)NN=Cc1cc(Cl)cc2c1B(O)OC2 (single isomer, unassigned) [Compound 227]
at least 80%: Pythium ultimum | [1] | [2] | [3]
